This passage reports binding results from article PMC7960628.

Protein sequences, listed by entry. Tags and fused reporters are not part of them. Lines headed by an entry give the natural chain unless they say otherwise; changes in a name come on top.
UniProt P02454: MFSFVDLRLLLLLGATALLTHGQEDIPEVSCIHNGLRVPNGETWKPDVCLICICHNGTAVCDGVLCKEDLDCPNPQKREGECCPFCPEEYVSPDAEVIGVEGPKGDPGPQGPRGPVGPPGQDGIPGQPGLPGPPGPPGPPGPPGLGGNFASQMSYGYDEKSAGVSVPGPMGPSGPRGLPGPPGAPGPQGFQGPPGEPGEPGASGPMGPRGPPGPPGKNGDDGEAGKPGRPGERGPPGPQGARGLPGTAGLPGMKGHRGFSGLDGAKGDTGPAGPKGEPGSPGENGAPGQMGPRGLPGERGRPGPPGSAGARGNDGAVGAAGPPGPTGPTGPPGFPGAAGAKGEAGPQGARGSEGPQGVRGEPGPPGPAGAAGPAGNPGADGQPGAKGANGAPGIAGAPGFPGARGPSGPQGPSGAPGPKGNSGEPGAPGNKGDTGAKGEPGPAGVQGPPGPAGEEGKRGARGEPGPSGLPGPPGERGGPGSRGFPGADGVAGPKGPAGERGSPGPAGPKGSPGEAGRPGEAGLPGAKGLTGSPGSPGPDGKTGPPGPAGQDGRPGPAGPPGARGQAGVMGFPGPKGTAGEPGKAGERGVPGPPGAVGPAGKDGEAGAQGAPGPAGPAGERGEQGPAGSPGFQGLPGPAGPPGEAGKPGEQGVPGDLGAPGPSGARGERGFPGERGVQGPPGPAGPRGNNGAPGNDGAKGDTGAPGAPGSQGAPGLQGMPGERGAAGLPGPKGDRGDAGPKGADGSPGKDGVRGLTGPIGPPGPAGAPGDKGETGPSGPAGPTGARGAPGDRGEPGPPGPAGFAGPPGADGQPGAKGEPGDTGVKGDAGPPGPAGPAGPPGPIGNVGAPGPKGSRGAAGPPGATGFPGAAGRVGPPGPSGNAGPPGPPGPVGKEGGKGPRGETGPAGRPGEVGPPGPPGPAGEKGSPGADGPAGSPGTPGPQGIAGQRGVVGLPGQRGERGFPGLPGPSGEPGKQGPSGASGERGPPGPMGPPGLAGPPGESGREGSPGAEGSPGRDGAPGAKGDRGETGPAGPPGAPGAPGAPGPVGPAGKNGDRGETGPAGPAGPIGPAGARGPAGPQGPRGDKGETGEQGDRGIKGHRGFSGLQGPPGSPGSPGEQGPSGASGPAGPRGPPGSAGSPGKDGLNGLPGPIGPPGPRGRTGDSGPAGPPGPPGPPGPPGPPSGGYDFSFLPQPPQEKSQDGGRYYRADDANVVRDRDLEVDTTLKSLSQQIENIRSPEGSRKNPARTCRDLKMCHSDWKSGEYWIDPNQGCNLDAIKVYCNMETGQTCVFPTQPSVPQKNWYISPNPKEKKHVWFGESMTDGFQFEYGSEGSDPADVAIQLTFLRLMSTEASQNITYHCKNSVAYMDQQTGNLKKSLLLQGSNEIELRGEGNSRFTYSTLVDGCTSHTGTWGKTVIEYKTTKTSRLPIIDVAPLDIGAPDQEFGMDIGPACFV
UniProt P56199: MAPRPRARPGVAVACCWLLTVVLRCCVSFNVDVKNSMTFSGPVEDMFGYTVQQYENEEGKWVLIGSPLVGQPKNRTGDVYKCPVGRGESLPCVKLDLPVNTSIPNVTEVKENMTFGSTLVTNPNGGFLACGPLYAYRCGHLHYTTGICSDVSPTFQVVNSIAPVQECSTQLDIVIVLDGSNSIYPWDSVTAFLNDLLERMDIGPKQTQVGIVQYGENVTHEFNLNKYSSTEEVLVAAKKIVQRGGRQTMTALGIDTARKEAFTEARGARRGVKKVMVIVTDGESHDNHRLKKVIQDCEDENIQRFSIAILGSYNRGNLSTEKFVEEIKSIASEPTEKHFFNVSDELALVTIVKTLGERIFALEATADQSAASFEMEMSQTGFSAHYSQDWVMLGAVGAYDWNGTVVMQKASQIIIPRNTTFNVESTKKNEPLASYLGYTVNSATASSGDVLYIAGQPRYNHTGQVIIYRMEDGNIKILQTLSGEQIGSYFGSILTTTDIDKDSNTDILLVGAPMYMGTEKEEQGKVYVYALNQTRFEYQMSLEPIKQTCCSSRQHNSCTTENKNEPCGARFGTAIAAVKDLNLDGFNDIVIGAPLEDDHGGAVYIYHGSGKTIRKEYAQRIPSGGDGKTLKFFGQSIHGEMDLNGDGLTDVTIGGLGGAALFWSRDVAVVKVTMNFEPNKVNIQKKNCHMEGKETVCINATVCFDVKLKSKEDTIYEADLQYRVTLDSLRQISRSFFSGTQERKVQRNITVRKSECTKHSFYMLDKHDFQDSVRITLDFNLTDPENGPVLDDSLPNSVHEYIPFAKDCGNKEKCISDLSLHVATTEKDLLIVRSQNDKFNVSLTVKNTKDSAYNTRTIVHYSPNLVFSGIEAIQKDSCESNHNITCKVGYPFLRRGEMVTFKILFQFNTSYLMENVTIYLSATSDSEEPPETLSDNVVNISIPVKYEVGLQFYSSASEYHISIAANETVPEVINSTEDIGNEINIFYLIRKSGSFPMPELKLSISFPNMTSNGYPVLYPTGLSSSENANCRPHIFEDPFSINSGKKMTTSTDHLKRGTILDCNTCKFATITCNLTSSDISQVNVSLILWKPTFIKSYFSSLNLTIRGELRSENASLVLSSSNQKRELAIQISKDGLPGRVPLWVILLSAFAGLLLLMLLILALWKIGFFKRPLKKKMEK

The test addresses collagen I (rat tail, Collaborative Biomedical Products) (rat) (UniProt P02454). Description: ELISA; solid-phase assay: 0.25 μg of collagens I, IV, XIII in 50 μl TBS coated on microtiter plates; GST-I domains soluble, diluted in TBS with 30 μg/ml BSA, 2 mM MgCl2, 0.05% Tween-20; room temperature; detected with anti-GST antibody; both purified. A general note: ELISA stands for enzyme-linked immunosorbent assay.

These are yes or no findings as the source states them, for the method shown. Binding calls can cover weak binding; strength is not graded here.

Turning to “GST-α1-I domain (recombinant I domain of human integrin α1) (from UniProt P56199) (domain or fragment)”, the binding entry was “binds”.
